From publication PMC3877047 (PLoS ONE, 2013)
These are yes or no findings as the source states them, for the method shown. Some binding calls cover weakened binding; strength is not graded here. For some assays here: Where a sequence is shown, tags or fusion partners need not be part of it.

The chains behind the UniProt entries cited, without tags or fusion partners. Where a name states a change or a piece, a line headed by the entry shows the natural chain unless it says otherwise. A line that says so, or that is headed by a name, gives the form on record, which may keep a tag or linker. Residues count along the entry.
Sx4(1-275)-His (C-terminally His6-tagged Syntaxin4 C141S, residues 1-275) (P70452, form named): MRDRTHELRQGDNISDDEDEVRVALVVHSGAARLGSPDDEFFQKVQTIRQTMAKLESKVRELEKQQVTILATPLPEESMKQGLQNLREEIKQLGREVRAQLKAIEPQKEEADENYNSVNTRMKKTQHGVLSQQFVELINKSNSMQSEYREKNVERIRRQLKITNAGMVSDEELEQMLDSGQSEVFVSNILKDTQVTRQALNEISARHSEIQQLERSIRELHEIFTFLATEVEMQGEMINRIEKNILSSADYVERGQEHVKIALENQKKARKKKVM

Columns and labels:
[1] = molecular target: HMunc18c (His6-tagged full-length mouse Munc18c from a codon-optimised synthetic gene in pQE30) (mouse) (UniProt Q60770); experiment: SEC-MALS; HMunc18c 2.5 mg/mL, S200 10/300 GL, room temperature; 25 mM Tris-HCl pH 7.5, 300 mM NaCl, 2 mM βME, 10% glycerol; both purified
[2] = molecular target: Sx4(1-275)-His (C-terminally His6-tagged Syntaxin4 C141S, residues 1-275) (UniProt P70452); experiment: pull-down; purified Sx4(1-275)-His, SNAP23 and VAMP2 mixed 1:1:1, overnight at 4°C; complex captured on TALON beads by the His6 tag of Sx4(1-275)-His; SDS-PAGE; both purified

| binding [1] | binding [2] | Binder |
| --- | --- | --- |
| no binding (tested: 2.5 mg/mL) |  | Munc18c (un-tagged) (natural protein, mouse, UniProt Q60770 1-592, looked up, made from pQE30-HMunc18c by PCR that removes the His6 codons; A few vector-encoded residues may be left at the N-terminus (surmised); also called untagged Munc18c; un-tagged Munc18c) MAPPVSERGLKSVVWRKIKTAVFDDCRKEGEWKIMLLDEFTTKLLSSCCKMTDLLEEGITVIENIYKNREPVRQMKALYFISPTPKSVDCFLRDFGSKSEKKYKAAYIYFTDFCPDSLFNKIKASCSKSIRRCKEINISFIPQESQVYTLDVPDAFYYCYSPDPSNASRKEVVMEAMAEQIVTVCATLDENPGVRYKSKPLDNASKLAQLVEKKLEDYYKIDEKGLIKGKTQSQLLIIDRGFDPVSTVLHELTFQAMAYDLLPIENDTYKYKTDGKEKEAVLEEDDDLWVRVRHRHIAVVLEEIPKLMKEISSTKKATEGKTSLSALTQLMKKMPHFRKQISKQVVHLNLAEDCMNKFKLNIEKLCKTEQDLALGTDAEGQRVKDSMLVLLPVLLNKNHDNCDKIRAVLLYIFGINGTTEENLDRLIHNVKIEDDSDMIRNWSHLGVPIVPPSQQAKPLRKDRSAEETFQLSRWTPFIKDIMEDAIDNRLDSKEWPYCSRCPAVWNGSGAVSARQKPRTNYLELDRKNGSRLIIFVIGGITYSEMRCAYEVSQAHKSCEVIIGSTHILTPRKLLDDIKMLNKSKDKVSFKDE |
|  | binds | SNAP23 (protein, UniProt O09044 1-210) MDNLSPEEVQLRAHQVTDESLESTRRILGLAIESQDAGIKTITMLDEQGEQLNRIEEGMDQINKDMREAEKTLTELNKCCGLCICPCNRTKNFESGKNYKATWGDGGDNSPSNVVSKQPSRITNGQPQQTTGAASGGYIKRITNDAREDEMEENLTQVGSILGNLKNMALDMGNEIDAQNQQIQKITEKADTNKNRIDIANTRAKKLIDS |
